Experimental data taken from patent US20260224544A1, “Intranasal Formulations for Treating Obstructive Sleep Apnea” (Mosanna Therapeutics AG, priority 2023, published 2026).
Some results were stated once for a whole list of compounds, not compound by compound.

Assay: Compound 1 drug substance stability (ICH storage conditions)
Type: physicochemical
Conditions: accelerated conditions 40±2° C./75±5% RH, data not shown
Experimental: A stability study for compound 1 batch H (non-micronized, GMP) was initiated as per ICH storage conditions described in Table 36.
Results for 1 month of storage at 25±2° C./60±5% RH, 30±2° C./65±5% RH and at 40±2° C./75±5% RH are available to date.
A stability study for compound 1 batch L and M (micronized to d90<10 μm and d90<35 μm respectively, scheduled GMP sublots of compound 1 batch H) will be initiated as per ICH reference storage conditions described in Table 37 and Table 38.
To date, only limited data are available on compound 1 drug substance both non-micronized and micronized.

Row | Compound | time for which stability was demonstrated (micronized, 2004 lot) | time for which stability was demonstrated (lots manufactured in 2004)
1 | COc1ccc(CC(=O)NCc2ccccc2-c2ccccc2C(=O)NCCc2cccnc2)cc1 [listing 1 of 2 here] | up to 6 months | –
2 | COc1ccc(CC(=O)NCc2ccccc2-c2ccccc2C(=O)NCCc2cccnc2)cc1 [listing 2 of 2 here] | – | up to 6 months
